No constants are given. Whether binding was seen depends on the method and setting. Binding seen in cells or lysates may run through a third protein. Some binding calls cover weakened binding; strength is not graded here.
Target: endogenous cMYC (human (endogenous in colon cancer cells, SW480 and LoVo)) (UniProt P01106)
Experiment: co-IP; endogenous proteins of colon cancer cells; lysis in RIPA buffer at 4 °C; anti-cMYC (6 μg, proteintech) and Protein A/G PLUS agarose; Western blot

Sequences of proteins named here, by UniProt entry; tags and fusion partners are left off.
UniProt P01106: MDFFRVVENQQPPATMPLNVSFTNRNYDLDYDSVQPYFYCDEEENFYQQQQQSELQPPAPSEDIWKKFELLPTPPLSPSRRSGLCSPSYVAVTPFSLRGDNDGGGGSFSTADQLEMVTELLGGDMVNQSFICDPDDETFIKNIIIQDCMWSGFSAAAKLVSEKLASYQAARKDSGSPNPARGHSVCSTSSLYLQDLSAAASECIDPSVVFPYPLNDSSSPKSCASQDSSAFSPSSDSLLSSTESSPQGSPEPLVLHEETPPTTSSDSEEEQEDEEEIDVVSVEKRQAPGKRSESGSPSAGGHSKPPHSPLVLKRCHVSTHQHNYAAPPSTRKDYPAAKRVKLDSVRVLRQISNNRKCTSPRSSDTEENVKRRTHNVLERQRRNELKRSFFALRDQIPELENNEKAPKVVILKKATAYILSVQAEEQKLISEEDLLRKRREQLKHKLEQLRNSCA
UniProt Q13191: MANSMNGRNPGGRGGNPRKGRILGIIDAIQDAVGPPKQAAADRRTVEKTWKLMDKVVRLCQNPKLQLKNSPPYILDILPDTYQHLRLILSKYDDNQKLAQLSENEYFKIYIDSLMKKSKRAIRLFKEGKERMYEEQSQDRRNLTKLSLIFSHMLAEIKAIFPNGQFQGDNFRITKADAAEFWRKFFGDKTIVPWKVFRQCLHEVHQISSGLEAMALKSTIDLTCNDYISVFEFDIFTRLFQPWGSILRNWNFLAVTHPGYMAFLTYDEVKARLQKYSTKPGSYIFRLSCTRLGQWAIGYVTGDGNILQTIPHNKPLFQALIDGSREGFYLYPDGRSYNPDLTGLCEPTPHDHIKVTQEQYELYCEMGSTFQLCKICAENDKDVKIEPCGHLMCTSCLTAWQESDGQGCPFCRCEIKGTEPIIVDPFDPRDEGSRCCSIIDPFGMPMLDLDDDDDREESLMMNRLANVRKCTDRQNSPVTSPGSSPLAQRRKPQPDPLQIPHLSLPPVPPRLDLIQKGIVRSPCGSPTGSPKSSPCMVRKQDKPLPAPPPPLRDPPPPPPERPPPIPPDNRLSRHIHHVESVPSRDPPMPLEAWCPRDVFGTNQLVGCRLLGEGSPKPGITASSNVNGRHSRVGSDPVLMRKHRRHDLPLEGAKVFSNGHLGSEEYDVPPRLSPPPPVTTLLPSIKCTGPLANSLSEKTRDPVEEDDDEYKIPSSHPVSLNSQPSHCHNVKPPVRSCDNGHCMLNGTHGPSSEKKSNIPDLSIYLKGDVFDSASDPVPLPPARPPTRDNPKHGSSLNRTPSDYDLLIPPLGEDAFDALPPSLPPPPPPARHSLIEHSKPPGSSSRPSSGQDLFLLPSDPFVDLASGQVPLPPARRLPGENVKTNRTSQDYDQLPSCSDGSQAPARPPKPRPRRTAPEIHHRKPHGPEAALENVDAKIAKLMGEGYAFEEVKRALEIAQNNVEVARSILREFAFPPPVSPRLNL

“endogenous CBLB (from UniProt Q13191 1-982)” was tested. Which binding did it give?
Its binding is “binds”.
